# Test results from the supplement of paper PMC12067093, “Discovery and optimisation of a covalent ligand for TRIM25 and its application to targeted protein ubiquitination” (Chemical Science, 2025).
# Chains of the proteins cited; added tags and fusions are not shown. Lines headed by an entry give the natural chain unless they say otherwise; changes in a name come on top.
# UniProt Q9BTE6: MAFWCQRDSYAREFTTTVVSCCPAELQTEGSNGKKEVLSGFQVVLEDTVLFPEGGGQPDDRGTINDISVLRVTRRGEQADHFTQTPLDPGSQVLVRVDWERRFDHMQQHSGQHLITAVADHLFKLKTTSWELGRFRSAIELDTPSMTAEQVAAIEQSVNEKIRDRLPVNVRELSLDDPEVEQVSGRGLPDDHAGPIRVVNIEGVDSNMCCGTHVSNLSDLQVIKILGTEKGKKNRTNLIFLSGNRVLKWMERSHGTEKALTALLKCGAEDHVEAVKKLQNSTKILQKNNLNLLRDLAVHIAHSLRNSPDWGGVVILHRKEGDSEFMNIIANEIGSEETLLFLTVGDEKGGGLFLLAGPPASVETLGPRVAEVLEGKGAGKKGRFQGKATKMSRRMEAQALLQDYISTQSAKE
# UniProt Q9H3P7: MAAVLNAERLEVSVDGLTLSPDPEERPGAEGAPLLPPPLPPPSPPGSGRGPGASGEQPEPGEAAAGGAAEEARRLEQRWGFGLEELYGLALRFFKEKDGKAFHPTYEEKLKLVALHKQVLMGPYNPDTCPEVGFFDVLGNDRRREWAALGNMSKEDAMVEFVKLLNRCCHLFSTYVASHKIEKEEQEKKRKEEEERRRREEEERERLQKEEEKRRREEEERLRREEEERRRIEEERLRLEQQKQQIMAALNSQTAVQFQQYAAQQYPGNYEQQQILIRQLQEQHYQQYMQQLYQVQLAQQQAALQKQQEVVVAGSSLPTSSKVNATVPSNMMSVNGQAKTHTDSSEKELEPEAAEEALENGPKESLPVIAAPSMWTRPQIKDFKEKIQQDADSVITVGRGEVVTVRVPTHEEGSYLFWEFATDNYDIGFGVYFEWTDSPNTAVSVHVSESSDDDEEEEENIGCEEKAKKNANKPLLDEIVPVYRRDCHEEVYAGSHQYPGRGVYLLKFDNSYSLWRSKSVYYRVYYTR
# UniProt P21399: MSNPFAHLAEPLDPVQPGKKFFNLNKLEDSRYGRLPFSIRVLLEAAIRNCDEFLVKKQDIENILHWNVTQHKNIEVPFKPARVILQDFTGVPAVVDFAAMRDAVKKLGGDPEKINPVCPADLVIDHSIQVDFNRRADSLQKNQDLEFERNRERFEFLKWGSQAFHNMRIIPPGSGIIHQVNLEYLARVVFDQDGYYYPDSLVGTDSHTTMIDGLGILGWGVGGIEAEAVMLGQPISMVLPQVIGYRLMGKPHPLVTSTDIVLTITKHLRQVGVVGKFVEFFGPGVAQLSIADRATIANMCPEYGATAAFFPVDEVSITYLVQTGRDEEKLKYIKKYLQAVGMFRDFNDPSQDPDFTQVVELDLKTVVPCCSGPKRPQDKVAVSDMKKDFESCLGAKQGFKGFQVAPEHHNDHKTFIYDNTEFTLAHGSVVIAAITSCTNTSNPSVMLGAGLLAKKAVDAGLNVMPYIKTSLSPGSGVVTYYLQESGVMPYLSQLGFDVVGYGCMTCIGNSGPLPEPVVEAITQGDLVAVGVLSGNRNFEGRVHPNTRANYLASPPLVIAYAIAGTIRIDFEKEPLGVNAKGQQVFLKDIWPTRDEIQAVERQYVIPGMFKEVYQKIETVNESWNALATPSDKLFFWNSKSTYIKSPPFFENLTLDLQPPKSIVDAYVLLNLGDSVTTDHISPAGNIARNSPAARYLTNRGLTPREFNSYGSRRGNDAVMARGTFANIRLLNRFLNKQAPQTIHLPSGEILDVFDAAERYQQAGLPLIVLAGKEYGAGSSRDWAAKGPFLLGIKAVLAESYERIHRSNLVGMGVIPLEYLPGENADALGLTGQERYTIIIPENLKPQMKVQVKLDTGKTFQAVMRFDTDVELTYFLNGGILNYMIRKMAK
# UniProt Q15057: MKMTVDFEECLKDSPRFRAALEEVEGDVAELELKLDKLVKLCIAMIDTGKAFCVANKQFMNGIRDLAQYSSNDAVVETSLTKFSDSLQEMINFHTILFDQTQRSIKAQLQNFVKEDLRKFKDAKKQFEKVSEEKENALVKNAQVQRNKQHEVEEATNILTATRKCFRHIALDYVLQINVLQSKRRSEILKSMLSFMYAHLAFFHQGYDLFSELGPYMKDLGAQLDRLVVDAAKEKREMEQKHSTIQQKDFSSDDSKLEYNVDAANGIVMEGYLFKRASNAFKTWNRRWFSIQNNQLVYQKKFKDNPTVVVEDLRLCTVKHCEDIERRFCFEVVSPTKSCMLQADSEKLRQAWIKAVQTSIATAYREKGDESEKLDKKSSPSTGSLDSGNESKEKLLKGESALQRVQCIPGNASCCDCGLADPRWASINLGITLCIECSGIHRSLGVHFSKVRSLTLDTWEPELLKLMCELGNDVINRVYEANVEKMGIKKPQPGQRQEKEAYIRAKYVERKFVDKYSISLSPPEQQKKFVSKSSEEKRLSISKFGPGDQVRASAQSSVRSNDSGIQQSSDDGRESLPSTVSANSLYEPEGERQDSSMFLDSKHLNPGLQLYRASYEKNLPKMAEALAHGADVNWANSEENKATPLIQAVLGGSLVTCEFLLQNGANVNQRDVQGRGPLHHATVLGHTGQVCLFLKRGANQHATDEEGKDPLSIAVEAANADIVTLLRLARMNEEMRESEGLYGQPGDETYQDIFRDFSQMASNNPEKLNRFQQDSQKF
# UniProt P16219: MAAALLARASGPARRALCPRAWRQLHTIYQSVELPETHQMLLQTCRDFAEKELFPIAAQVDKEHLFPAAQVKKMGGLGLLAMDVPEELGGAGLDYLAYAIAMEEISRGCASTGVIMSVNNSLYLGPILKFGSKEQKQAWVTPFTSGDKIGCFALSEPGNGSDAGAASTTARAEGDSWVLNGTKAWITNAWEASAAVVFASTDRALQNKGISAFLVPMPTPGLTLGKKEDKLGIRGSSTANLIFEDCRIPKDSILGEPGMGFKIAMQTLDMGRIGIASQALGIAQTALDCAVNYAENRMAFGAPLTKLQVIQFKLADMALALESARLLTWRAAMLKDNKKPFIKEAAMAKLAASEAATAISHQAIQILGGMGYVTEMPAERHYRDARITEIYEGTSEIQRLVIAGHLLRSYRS
# UniProt Q5T8D3: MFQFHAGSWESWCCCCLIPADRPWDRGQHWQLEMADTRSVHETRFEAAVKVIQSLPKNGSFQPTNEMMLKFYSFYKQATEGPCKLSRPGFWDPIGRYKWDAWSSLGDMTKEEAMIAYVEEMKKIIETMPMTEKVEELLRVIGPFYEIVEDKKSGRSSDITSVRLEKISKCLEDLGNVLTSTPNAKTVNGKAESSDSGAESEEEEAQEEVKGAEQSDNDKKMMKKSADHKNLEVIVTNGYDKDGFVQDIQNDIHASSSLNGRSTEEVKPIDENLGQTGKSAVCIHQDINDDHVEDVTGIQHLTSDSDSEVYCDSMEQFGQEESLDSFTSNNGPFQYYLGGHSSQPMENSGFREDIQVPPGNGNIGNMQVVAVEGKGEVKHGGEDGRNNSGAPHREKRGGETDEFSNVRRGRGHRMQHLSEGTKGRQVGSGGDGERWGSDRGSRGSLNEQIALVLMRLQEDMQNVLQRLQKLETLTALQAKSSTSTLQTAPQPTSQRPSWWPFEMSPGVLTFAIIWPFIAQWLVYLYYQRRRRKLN
# UniProt Q9NRG9: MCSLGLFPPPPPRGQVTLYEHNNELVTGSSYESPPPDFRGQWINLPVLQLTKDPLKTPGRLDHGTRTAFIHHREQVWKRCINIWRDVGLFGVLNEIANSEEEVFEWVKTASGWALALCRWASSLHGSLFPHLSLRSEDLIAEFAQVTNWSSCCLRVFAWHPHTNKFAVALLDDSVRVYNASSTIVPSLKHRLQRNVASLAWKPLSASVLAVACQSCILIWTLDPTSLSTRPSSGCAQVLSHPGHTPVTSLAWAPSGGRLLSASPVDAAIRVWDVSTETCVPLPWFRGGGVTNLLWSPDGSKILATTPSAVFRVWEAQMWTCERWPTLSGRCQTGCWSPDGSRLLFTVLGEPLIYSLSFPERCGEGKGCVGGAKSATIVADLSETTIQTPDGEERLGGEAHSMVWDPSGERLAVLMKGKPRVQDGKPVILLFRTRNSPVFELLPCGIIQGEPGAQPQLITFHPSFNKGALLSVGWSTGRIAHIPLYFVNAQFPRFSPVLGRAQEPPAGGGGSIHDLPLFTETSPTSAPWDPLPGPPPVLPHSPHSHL
# UniProt O95477, whole entry: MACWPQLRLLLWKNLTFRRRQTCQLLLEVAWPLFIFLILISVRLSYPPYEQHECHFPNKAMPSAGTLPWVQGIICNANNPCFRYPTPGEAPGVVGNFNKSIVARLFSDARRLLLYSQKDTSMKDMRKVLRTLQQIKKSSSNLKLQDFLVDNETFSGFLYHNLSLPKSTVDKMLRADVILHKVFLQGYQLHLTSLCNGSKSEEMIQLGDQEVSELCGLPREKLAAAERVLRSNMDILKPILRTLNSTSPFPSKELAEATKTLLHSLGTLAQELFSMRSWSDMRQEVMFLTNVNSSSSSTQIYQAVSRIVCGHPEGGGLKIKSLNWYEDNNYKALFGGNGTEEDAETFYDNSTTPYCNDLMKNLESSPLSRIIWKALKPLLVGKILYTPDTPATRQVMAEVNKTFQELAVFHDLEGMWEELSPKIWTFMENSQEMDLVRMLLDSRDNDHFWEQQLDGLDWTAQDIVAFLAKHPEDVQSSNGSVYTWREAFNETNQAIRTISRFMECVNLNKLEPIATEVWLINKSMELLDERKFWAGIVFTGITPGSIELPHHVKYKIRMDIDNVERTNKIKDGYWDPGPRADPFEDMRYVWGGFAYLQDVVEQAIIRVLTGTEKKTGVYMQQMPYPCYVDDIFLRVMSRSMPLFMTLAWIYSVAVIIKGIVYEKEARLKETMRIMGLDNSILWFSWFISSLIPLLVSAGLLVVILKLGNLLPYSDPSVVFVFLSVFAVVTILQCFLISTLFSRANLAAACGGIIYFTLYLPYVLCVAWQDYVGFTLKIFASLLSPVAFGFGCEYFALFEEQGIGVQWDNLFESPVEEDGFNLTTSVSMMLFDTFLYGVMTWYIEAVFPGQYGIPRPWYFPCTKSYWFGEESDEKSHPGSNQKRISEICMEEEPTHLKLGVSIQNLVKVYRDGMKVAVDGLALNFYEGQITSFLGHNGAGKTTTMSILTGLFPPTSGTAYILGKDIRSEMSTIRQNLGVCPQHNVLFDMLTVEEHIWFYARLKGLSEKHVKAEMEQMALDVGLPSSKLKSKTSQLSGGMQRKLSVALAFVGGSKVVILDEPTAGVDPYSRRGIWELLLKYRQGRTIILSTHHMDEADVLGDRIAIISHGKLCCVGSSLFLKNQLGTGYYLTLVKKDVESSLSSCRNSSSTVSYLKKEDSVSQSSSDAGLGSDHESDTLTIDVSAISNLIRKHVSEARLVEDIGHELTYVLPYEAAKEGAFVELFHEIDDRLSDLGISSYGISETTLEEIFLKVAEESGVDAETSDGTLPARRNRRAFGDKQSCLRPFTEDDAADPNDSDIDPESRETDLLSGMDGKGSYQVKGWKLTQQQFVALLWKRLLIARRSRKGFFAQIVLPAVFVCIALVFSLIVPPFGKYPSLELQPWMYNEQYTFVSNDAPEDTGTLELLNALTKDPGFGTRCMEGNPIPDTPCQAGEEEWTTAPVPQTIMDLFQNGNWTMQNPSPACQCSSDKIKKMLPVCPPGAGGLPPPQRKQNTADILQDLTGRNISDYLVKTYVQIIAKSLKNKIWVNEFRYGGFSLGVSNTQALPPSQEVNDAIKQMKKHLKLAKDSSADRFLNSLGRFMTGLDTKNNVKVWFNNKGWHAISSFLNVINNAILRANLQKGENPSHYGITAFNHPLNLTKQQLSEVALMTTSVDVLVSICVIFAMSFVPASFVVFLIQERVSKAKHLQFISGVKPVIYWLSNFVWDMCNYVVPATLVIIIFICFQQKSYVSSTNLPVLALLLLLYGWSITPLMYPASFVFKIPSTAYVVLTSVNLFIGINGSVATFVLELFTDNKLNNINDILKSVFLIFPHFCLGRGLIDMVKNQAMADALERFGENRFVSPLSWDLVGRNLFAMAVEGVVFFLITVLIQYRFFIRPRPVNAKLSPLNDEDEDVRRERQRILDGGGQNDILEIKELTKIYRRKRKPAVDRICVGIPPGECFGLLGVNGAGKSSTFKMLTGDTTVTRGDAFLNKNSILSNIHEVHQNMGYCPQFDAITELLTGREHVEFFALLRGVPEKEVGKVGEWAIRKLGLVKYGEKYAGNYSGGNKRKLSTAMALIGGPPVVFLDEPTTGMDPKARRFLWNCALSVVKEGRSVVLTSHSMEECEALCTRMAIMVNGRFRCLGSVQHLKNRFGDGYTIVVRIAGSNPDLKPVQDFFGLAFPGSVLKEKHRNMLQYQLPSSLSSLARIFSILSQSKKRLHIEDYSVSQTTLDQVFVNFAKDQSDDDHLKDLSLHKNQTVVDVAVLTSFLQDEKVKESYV
# The list shows a part of the results.
# Compound: CC1Cc2ccccc2N1C(=O)C1CCCN(C1)C(=O)CCl (mixture of isomers) [TRIM25 ligand 11 (diastereomer mixture)]
# Assay: probe-labelled cysteine peptide fold change vs DMSO (competition) (log2 fold change); higher = less target engagement (more negative = stronger competition)
# Settings: 10 µM; THP-1; incubation time: 4 h
# 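Note: competitive chemoproteomic profiling in live THP-1 cells with an iodoacetamide desthiobiotin (IA-DTB) probe, comparing probe-labelled peptide intensities in compound-treated cells against DMSO-treated controls.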
row,Target,probe-labelled cysteine peptide fold change
1,ACADSB_P45954_261_ASSTCPLTFENVK (UniProt P45954),-0.0344
2,AARS_P49588_901_ITCLCQVPQNAANR (UniProt P49588),0.023
3,AARSD1_Q9BTE6_266_CGAEDHVEAVK (UniProt Q9BTE6),0.0742
4,ACBD3_Q9H3P7_168_CCHLFSTYVASHK (UniProt Q9H3P7),0.0944
5,ABCC1_P33527_1047_CLHVDLLHSILR (UniProt P33527),-0.0587
6,AASDHPPT_Q9NRN7_23_WAFSCGTWLPSR (UniProt Q9NRN7),-0.0315
7,AARS_P49588_723_VVSIGVPVSELLDDPSGPAGSLTSVEFCGGTHLR (UniProt P49588),-0.104
8,ACO1_P21399_118_INPVCPADLVIDHSIQVDFNR (UniProt P21399),-0.039
9,ACACB_O00763_1429_SLREEPIHILNVSIQCADHLEDEALVPILR (UniProt O00763),-0.0661
10,ACAP2_Q15057_53_AFCVANK (UniProt Q15057),0.087
11,ACADS_P16219_109_GCASTGVIMSVNNSLYLGPILK (UniProt P16219),0.201
12,ACBD5_Q5T8D3_83_QATEGPCK (UniProt Q5T8D3),0.116
13,ABCD3_P28288_477_SGANVLICGPNGCGK (UniProt P28288),-0.00447
14,AAAS_Q9NRG9_331_CQTGCWSPDGSR (UniProt Q9NRG9),-0.0735
15,ABCA1_O95477_215_SEEMIQLGDQEVSELCGLPR (UniProt O95477),-0.251
16,ACLY_P53396_519_AVQGMLDFDYVCSRDEPSVAAMVYPFTGDHK (UniProt P53396),-0.331

# Shown with tabs: entries from further up
row	Target	probe-labelled cysteine peptide fold change
7	AARS_P49588_723_VVSIGVPVSELLDDPSGPAGSLTSVEFCGGTHLR (UniProt P49588)	-0.104
15	ABCA1_O95477_215_SEEMIQLGDQEVSELCGLPR (UniProt O95477)	-0.251
